# Data as given in PubChem BioAssay AID1259254 (NCATS, 2017)
# Test: 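Finding genes that stop cells copying their DNA twice in one cycle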 (primary screen)
# System: human HCT116 colorectal cancer cells
# Reagents: single siRNA against human genes
# Duration: 3 days
# Detection: 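Nuclei stained with Hoechst and imaged; cell-cycle phase assigned by DNA content; G2 share scaled per plate, non-targeting siRNA 0%, GMNN siRNA 100%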
# Direction: G2 robust z-score and G2 cells, % of GMNN control: higher = more G2 cells, more excess DNA replication
# Hit rule: 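Active siRNAs have a G2 robust z of 5 or more median absolute deviations over the median, which in these data means about 38% or higher of GMNN control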
# Shown is a random part of about 59,000 reagents. About 1,550 of them (2.6%) count as active. 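G2 share is only a proxy for re-replication; each gene was hit by three separate siRNAs, and active genes were retested.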 Unmarked entries are inactive. Further read-outs or replicates are left out here. Not stated in the record: the amount of reagent.
target,PubChem SID,G2 robust z-score,"G2 cells, % of GMNN control"
MC3R (melanocortin 3 receptor),SID160777022,4.74,36.4
MC3R (melanocortin 3 receptor),SID160777023,-0.684,-1.85
MC3R (melanocortin 3 receptor),SID160777024,1.41,12.9
"POLD3 (DNA polymerase delta 3, accessory subunit)",SID160729077,0.794,8.55
"POLD3 (DNA polymerase delta 3, accessory subunit)",SID160729078,-1.24,-5.76
"POLD3 (DNA polymerase delta 3, accessory subunit)",SID160729079,0.477,6.32
GOLGA8G (golgin A8 family member G),SID160763035,-0.787,-2.57
GOLGA8G (golgin A8 family member G),SID160763036,1.58,14.1
GOLGA8G (golgin A8 family member G),SID160763037,1.44,13.1
SPRYD4 (SPRY domain containing 4),SID160732929,-0.713,-2.05
SPRYD4 (SPRY domain containing 4),SID160762883,-0.342,0.558
SPRYD4 (SPRY domain containing 4),SID160762884,-0.41,0.0854
"SPTBN1 (spectrin beta, non-erythrocytic 1)",SID160774676,-0.713,-2.05
"SPTBN1 (spectrin beta, non-erythrocytic 1)",SID160774688,-0.137,2
"SPTBN1 (spectrin beta, non-erythrocytic 1)",SID160774698,-0.0152,2.86
ELF1 (E74 like ETS transcription factor 1),SID160759743,-0.266,1.1
ELF1 (E74 like ETS transcription factor 1),SID160759754,0.0603,3.39
ELF1 (E74 like ETS transcription factor 1),SID160759765,0.778,8.44
CALCA (calcitonin related polypeptide alpha),SID160723688,7.43 (active),55.3
CALCA (calcitonin related polypeptide alpha),SID160727815,-0.393,0.199
CALCA (calcitonin related polypeptide alpha),SID160727816,0.264,4.83
"PCDHGA8 (protocadherin gamma subfamily A, 8)",SID160722868,-0.286,0.957
"PCDHGA8 (protocadherin gamma subfamily A, 8)",SID160722869,1.23,11.6
"PCDHGA8 (protocadherin gamma subfamily A, 8)",SID160722870,5.12 (active),39
SLC51B (SLC51 subunit beta),SID160756072,-0.196,1.59
SLC51B (SLC51 subunit beta),SID160756073,0.474,6.3
SLC51B (SLC51 subunit beta),SID160756074,-0.269,1.07
TUBB3 (tubulin beta 3 class III),SID160724255,3.4,26.9
TUBB3 (tubulin beta 3 class III),SID160728287,1.75,15.3
TUBB3 (tubulin beta 3 class III),SID160728288,-0.698,-1.94
HTR1D (5-hydroxytryptamine receptor 1D),SID160775442,5.39 (active),40.9
HTR1D (5-hydroxytryptamine receptor 1D),SID160775443,-1.4,-6.91
HTR1D (5-hydroxytryptamine receptor 1D),SID160775444,-0.0167,2.85
SLC1A6,SID160716799,-0.823,-2.82
SLC1A6,SID160716801,-0.49,-0.481
SLC1A6,SID160731749,-0.786,-2.56
LINC02297 (long independently transcribed non-coding RNA 2297),SID160768606,0.32,5.22
LINC02297 (long independently transcribed non-coding RNA 2297),SID160768607,0.00141,2.98
LINC02297 (long independently transcribed non-coding RNA 2297),SID160768608,-0.267,1.09
NOL9 (nucleolar protein 9),SID160749242,1.15,11
NOL9 (nucleolar protein 9),SID160749243,-0.322,0.705
NOL9 (nucleolar protein 9),SID160749244,-0.965,-3.82
CLEC4A (C-type lectin domain family 4 member A),SID160739774,1.03,10.2
CLEC4A (C-type lectin domain family 4 member A),SID160739775,0.271,4.87
CLEC4A (C-type lectin domain family 4 member A),SID160739776,7.43 (active),55.3
HCRT (hypocretin neuropeptide precursor),SID160723850,0.0738,3.49
HCRT (hypocretin neuropeptide precursor),SID160723851,-0.204,1.53
HCRT (hypocretin neuropeptide precursor),SID160723852,-1.04,-4.33
COL1A1 (collagen type I alpha 1 chain),SID160745674,-0.0972,2.28
COL1A1 (collagen type I alpha 1 chain),SID160745683,-0.0228,2.81
COL1A1 (collagen type I alpha 1 chain),SID160745694,1.13,10.9
"LARP7 (La ribonucleoprotein 7, transcriptional regulator)",SID160741032,-1.23,-5.67
"LARP7 (La ribonucleoprotein 7, transcriptional regulator)",SID160741033,6.52 (active),48.9
"LARP7 (La ribonucleoprotein 7, transcriptional regulator)",SID160741034,0.172,4.18
GPD1 (glycerol-3-phosphate dehydrogenase 1),SID160730993,0.0391,3.24
GPD1 (glycerol-3-phosphate dehydrogenase 1),SID160772780,2.92,23.5
GPD1 (glycerol-3-phosphate dehydrogenase 1),SID160772800,-0.975,-3.89
SMR3A (submaxillary gland androgen regulated protein 3A),SID160724354,-0.0743,2.44
SMR3A (submaxillary gland androgen regulated protein 3A),SID160732885,2.73,22.2
SMR3A (submaxillary gland androgen regulated protein 3A),SID160738187,0.666,7.65
EAF1 (ELL associated factor 1),SID160753239,0.693,7.85
EAF1 (ELL associated factor 1),SID160753240,-1.08,-4.62
EAF1 (ELL associated factor 1),SID160753241,0.706,7.94
EPDR1 (ependymin related 1),SID160742096,5.34 (active),40.5
EPDR1 (ependymin related 1),SID160742097,-0.867,-3.13
EPDR1 (ependymin related 1),SID160742098,4.92,37.6
DNAH6 (dynein axonemal heavy chain 6),SID160763452,3.19,25.4
DNAH6 (dynein axonemal heavy chain 6),SID160763453,-0.455,-0.231
DNAH6 (dynein axonemal heavy chain 6),SID160763454,-0.444,-0.157

Hits (from the list above):
target,PubChem SID,G2 robust z-score,"G2 cells, % of GMNN control"
CALCA (calcitonin related polypeptide alpha),SID160723688,7.43 (active),55.3
"PCDHGA8 (protocadherin gamma subfamily A, 8)",SID160722870,5.12 (active),39
HTR1D (5-hydroxytryptamine receptor 1D),SID160775442,5.39 (active),40.9
CLEC4A (C-type lectin domain family 4 member A),SID160739776,7.43 (active),55.3
"LARP7 (La ribonucleoprotein 7, transcriptional regulator)",SID160741033,6.52 (active),48.9
EPDR1 (ependymin related 1),SID160742096,5.34 (active),40.5
